Drawing on paper PMC12035908, this text covers binding for one substance.

No constants are given. Whether binding was seen depends on the method and setting. In cells and extracts the contact can be indirect. Some entries that bind do so weakly or less than the wild type.

The target of the test is T1, SNX17 (sorting nexin 17) (human (endogenous in HCC and 293T cells)) (UniProt Q15036).
T1 sequence: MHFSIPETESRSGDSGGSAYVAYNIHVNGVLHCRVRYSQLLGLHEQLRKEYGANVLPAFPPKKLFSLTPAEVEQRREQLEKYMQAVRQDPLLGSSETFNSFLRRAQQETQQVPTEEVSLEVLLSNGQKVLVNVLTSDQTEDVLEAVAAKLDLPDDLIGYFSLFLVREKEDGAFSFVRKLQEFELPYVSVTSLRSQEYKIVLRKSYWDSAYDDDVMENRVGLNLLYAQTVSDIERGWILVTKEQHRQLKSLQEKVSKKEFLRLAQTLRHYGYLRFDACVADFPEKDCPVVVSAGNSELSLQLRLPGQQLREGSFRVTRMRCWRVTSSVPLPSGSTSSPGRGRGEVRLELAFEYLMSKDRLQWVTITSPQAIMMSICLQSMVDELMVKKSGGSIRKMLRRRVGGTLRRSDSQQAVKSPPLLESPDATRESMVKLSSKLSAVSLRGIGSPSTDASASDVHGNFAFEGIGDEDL
Nature of the test: co-IP; RIPA lysates of HCC and 293T cells; anti-SNX17 or anti-STAT3 antibody or control IgG on protein A/G agarose overnight at 4 °C, washed five times, western blot; also in cells with SNX17 knockdown or VPS35 knockdown. (A western blot detects proteins with antibodies after separation by electrophoresis.)

For VPS26A (from UniProt O75436 1-327), the binding result is given as “binds”.
